Reference: publication PMC8826350, “Structural feature-driven pattern analysis for multitarget modulator landscapes” (Bioinformatics, 2021)

Assay: Fluorimetric analyses for auto-fluorescence
Conditions: concentrations up to 30 µM; excitation 360 and 485 nm

SMILES	auto-fluorescence
Cc1onc(-c2ccccc2Cl)c1C(=O)N1CCN(Cc2nnnn2-c2ccc(F)cc2)CC1 [Compound 3]	Neither compound 3 nor compound 5 showed auto-fluorescence
COc1ccc(OCc2noc(CN3CCN(C(=O)C45CC6CC(CC(C6)C4)C5)CC3)n2)cc1 [Compound 5]	Neither compound 3 nor compound 5 showed auto-fluorescence
